Data as given in article PMC12955949.
These are yes or no findings as the source states them, for the method shown. For some assays here: In cells and extracts the contact can be indirect. Some entries that bind do so weakly or less than the wild type.

By UniProt entry, the sequences of proteins in these tests, tags left out. Residues count along the entry.
UniProt P01137, residues 279-390: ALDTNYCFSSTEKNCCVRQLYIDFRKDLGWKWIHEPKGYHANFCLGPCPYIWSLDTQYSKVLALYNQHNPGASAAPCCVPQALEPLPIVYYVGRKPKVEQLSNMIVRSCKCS

Tests used:
[1] = biological target: T1, recombinant VDR (vitamin D receptor) (UniProt P11473); test: co-IP; recombinant VDR (5 µg) incubated with recombinant TGFβ1; anti-VDR (ab3508) or isotype antibody overnight at 4 °C; captured on Dynabeads Protein G; Western blot with anti-VDR and anti-TGFβ1; both purified
T1 sequence: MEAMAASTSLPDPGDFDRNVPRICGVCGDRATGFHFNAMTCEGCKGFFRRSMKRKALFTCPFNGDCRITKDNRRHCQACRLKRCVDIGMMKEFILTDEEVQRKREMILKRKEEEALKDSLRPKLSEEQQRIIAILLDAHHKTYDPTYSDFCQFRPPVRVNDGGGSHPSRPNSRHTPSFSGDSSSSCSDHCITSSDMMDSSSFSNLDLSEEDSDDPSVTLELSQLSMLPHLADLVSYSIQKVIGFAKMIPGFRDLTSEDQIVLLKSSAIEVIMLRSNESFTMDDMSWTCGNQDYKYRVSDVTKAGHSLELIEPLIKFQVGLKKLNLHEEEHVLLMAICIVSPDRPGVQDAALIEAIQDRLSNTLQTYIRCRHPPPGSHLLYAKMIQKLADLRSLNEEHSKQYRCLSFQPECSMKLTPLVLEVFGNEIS

[2] = biological target: T2, Vitamin D receptor (VDR), endogenous in endometrial organoid lysate (human (endogenous in endometrial organoids)) (UniProt P11473); test: co-IP; EO protein lysate (500 µg) incubated with recombinant TGFβ1; anti-VDR (ab3508) or isotype antibody overnight at 4 °C; captured on Dynabeads Protein G; Western blot with anti-VDR and anti-TGFβ1; only the binder purified
T2 sequence: T1 sequence

Substance: recombinant human TGFβ1 protein (transforming growth factor beta-1) (from UniProt P01137 279-390) (ligand)
- binding [1]: binds
- binding [2]: binds
